Source: patent publication US20090104220A1, “Method to Make a Peptide-Carrier Conjugate with a High Immunogenicity” (priority 2003, published 2009)

system: OMPC; experiment: Conjugation load of peptide on OMPC by amino acid analysis of the conjugate; set-up: species or system Neisseria meningitidis; settings: large-scale sSMCC conjugation, 17 h at 4° C.

Row | Substance | level of incorporation
1 | GLFGAIAGFIENGWEGMVDGCE-OH (GLFGAIAGFIENGWEGMVDGCEH) [HA2-25, pI-engineered HA2-9: basic tail deleted, C-terminal glutamate] | 2436 moles peptide/mol OMPC
2 | STMGARSMTLTVQARQLβC—NH2 [PR] | 200 moles peptide/mol OMPC
3 | Suc-STMGARSMTLTVQARQLβC—NH2 [Succinyl-PR] | 1360 moles peptide/mol OMPC
